# Source: PMC4046919
# The chains behind the UniProt entries cited, without tags or fusion partners. Where a name states a change or a piece, a line headed by the entry shows the natural chain unless it says otherwise. A line that says so, or that is headed by a name, gives the form on record, which may keep a tag or linker.
# UniProt Q9WV60: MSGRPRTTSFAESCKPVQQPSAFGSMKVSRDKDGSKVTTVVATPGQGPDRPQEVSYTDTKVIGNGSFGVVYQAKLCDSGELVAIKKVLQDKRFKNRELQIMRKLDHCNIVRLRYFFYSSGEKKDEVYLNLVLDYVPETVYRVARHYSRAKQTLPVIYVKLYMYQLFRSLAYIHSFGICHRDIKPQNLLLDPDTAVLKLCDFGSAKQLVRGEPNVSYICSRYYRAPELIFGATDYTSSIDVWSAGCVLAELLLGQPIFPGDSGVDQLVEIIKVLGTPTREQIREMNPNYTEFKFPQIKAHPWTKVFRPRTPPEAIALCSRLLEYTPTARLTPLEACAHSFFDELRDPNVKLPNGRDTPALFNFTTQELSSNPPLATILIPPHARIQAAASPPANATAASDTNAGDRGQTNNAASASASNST
# nuclear myosin 1c (NM1), endogenous, mouse (Q9WTI7-3, form named): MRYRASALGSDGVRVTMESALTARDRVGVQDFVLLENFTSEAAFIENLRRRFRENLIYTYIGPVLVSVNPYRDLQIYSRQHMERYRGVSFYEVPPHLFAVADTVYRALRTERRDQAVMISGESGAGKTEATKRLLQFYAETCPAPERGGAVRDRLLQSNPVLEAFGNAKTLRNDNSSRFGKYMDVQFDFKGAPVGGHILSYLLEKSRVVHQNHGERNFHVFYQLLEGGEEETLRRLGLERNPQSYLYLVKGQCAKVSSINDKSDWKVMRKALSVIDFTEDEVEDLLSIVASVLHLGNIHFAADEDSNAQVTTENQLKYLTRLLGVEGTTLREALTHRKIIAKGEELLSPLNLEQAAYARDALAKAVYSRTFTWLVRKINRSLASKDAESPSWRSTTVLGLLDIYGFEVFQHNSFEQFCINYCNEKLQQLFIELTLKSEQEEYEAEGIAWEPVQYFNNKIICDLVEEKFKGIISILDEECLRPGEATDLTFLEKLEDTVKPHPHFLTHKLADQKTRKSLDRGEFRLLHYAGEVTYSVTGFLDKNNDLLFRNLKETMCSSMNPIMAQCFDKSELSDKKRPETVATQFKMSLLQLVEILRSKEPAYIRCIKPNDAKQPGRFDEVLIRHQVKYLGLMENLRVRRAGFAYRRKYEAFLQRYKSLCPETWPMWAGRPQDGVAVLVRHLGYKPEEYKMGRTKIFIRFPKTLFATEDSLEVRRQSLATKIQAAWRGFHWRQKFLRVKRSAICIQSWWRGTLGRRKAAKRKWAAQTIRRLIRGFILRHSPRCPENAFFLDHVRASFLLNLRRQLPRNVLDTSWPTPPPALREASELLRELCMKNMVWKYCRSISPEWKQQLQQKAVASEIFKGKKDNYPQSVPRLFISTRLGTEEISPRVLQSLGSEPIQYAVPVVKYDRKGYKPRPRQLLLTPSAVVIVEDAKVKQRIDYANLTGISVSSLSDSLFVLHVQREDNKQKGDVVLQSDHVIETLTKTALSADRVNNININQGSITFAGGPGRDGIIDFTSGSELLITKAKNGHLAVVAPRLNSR
# UniProt Q91ZW3: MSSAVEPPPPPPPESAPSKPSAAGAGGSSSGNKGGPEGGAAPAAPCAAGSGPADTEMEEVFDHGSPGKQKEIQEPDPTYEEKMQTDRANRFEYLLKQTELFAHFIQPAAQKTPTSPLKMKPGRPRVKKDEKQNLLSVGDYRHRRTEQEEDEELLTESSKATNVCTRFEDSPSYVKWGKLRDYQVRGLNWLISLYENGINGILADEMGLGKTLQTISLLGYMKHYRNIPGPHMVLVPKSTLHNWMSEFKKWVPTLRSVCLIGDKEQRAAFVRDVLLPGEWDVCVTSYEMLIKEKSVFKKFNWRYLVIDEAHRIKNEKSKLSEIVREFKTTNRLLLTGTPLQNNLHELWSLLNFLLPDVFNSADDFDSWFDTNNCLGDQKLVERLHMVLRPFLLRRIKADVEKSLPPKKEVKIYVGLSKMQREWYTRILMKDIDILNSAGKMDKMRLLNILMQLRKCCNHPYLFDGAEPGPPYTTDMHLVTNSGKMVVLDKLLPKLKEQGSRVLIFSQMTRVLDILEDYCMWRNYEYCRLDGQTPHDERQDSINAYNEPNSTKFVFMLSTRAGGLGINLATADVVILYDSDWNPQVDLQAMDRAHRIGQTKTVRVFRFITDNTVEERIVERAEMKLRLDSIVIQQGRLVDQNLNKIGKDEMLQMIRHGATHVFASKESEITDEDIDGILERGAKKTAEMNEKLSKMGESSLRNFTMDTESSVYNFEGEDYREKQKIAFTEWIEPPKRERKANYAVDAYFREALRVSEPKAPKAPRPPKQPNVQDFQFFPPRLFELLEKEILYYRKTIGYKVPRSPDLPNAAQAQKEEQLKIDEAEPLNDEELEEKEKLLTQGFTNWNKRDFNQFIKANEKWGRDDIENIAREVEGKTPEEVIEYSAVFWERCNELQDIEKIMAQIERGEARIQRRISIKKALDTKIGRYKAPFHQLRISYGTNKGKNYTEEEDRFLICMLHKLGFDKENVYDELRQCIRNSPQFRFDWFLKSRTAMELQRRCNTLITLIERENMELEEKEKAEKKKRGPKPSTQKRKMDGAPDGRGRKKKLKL
# UniProt P49841: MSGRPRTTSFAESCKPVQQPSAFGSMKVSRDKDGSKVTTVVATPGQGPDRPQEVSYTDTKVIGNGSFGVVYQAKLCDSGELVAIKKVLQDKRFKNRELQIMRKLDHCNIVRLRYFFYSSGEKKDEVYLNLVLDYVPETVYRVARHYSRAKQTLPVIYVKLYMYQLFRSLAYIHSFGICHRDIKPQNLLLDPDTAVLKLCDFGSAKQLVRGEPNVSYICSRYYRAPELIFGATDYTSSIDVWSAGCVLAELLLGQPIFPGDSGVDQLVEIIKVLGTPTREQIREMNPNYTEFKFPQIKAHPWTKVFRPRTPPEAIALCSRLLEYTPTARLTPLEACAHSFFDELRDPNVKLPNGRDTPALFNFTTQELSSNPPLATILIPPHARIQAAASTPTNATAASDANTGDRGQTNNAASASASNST
# Results are given in words; binding and its absence hold for the method and conditions named. In cells and extracts the contact can be indirect. Some results given as binding are weak or reduced against the parent protein; the word gives no strength.
# B1: WSTF, endogenous, mouse (protein, UniProt Q9Z277 1-1479)
# chain: MAPLLGRKPFPLVKPLPGEEPLFTIPHTQEAFRTREEYEARLERYSERIWTCKSTGSSQLTHKEAWEEEQEVAELLKEEFPNWYEKLVLEMVHHNTASLEKLVDSAWLEIMTKYAVGEECDFEVGKEKMLKVKIVKIHPLEKVDEEAVEKKSDGACDSPSSDKENSSQMAQDLQKKETVVKEDEGRRESINDRARRSPRKLPTSLKKGERKWAPPKFLPHKYDVKLQNEDKIISNVPADSLIRTERPPNKEILRYFIRHNALRAGTGENAPWVVEDELVKKYSLPSKFSDFLLDPYKYMTLNPSTKRRNTGSPDRKPSKKPKRDSSSLSSPLNPKLWCHVHLEKSLNGPPLKVKNSKNSKSPEEHLEGVMKIMSPNNNKLHSFHIPKKGPAAKKPGKHSDKPLKAKGRGKGILNGQKSTGNSKSPSKCVKTPKTKMKQMTLLDMAKGTQKMTRTPRSSGGVPRSSGKPHKHLPPAALHLIAYYKENKDKEDKKSALSCVISKTARLLSNEDRARLPEELRALVQKRYELLEHKKRWASMSEEQRKEYLKKKRQELKERLREKAKERREREMLERLEKQKRFEDQELGGRNLPAFRLVDTPEGLPNTLFGDVALVVEFLSCYSGLLLPDAQYPITAVSLMEALSADKGGFLYLNRVLVILLQTLLQDEIAEDYGELGMKLSEIPLTLHSVSELVRLCLRRCDVQEDSEGSETDDNKDSTPFEDNEVQDEFLEKLETSEFFELTSEEKLRILTALCHRILMTYSVQDHMETRQQVSAELWKERLAVLKEENDKKRAEKQKRKEMEARNKENGKEENVLGKVDRKKEIVKIEQQVEVEADDMISAVKSRRLLSMQAKRKREIQERETKVRLEREAEEERMRKHKAAAEKAFQEGIAKAKLVLRRTPIGTDRNHNRYWLFSNEVPGLFIEKGWVHNSIDYRFKHHRKDHSNLPDDDYCPRSKKANLGKNASVNAHHGPALEAVETTVPKQGQNLWFLCDSQKELDELLSCLHPQGIRESQLKERLEKRYQEITHSIYLARKPNLGLKSCDGNQELLNFLRSDLIEVATRLQKGGLGYMEGTSEFEARVISLEKLKDFGECVIALQASVIKKFLQGFMAPKQKKRKLQSEDSTKSEEVDEEKKMVEEAKVASALEKWKTAIREAQTFSRMHVLLGMLDACIKWDMSAENARCKVCRKKGEDDKLILCDECNKAFHLFCLRPALYEVPDGEWQCPACQPPTARRNSRGRNYTEESTSEGSEGDESGEEEEEEEEEEEEEEDYEVAGLRLRPRKTIRGKQSVIPAARPGRPPGKKSHPARRSRPKDDPEVDDLVLQTKRISRRQSLELQKCEDILHKLVKYRFSWPFREPVTRDEAEDYYDVIEHPMDFQTIQNKCSCGNYRSVQEFLTDMKQVFANAELYNCRGSHVLSCMEKTEQCLLALLQKHLPGHPYVRRKRRKFPDRLADDEGDSDSESVGQSRGRRQKK
# What was measured:
# [1] = biological target: glycogen synthase kinase (GSK) 3β, endogenous, mouse (mouse (endogenous in MEFs)) (UniProt Q9WV60); assay: co-IP; nuclear lysates of growing GSK3β+/+ MEFs; endogenous GSK3β precipitated with the CGR11 antibody and Protein G Sepharose; beads washed with 1X PBS, 1 mM PMSF, 0.2% NP-40; immunoblots; non-specific rabbit IgGs as control
# V5-tagged wild-type NM1 = V5-tagged wild-type NM1 (UniProt Q9WTI7); assay: co-IP; total lysates of HEK293T cells stably expressing V5-tagged NM1 constructs; anti-V5 antibody and Protein G Sepharose; beads washed with 1X PBS, 1 mM PMSF, 0.2% NP-40; endogenous GSK3β detected on immunoblots with CGR11
Molecule,binding [1],binding (V5-tagged wild-type NM1)
"SNF2h, endogenous, mouse (from UniProt Q91ZW3 1-1051)",no binding,–
"glycogen synthase kinase (GSK) 3β, endogenous, human (from UniProt P49841 1-420) (enzyme)",–,binds
"nuclear myosin 1c (NM1), endogenous, mouse (from UniProt Q9WTI7-3 1-1044)",binds,–
B1,no binding,–
